# Assay results taken from patent EP4658683A1.
# These are yes or no findings as the source states them, for the method shown. Some entries that bind do so weakly or less than the wild type.
# T1: PACAP (UniProt P18509)
# T1 sequence (peptide, looked up): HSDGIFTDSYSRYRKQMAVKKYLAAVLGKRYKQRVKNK
# Biological target: T1, PACAP
# Experiment: binding affinity screen of humanized variants (Table 5)
binder,measurement,value
"anti-PACAP antibody 890C (antibody, human IgG4 S228P, kappa, V domains shown) VH: EVQLVQSGAEVKKPGSSVKVSCKASGGTFSDVYMHWVRQAPGQGLEWMGLIYPIFADTRYAQKFQGRVTITADESTSTAYMELSSLRSEDTAVYYCAIDQDGSFAYWGQGTLVTVSS VL: DIVMTQSPDSLAVSLGERATINCKSSQSLLDADGKTYLNWLQQKPGQPPKRLIYWASTRESGVPDRFSGSGSGTDFTLTISSLQAEDVAVYYCWQGTWFDLTFGGGTKVEIKR",binding,binds
